Experimental data published in paper doi:10.1101/2025.04.21.649502.
Results are given in words; binding and its absence hold for the method and conditions named. In cells and extracts the contact can be indirect. Where a sequence is shown, tags or fusion partners need not be part of it.

Target: T1, Flag/HA-ZC3H7B (Zinc Finger CCCH-Type Containing 7B) (human) (UniProt Q9UGR2)
T1 sequence: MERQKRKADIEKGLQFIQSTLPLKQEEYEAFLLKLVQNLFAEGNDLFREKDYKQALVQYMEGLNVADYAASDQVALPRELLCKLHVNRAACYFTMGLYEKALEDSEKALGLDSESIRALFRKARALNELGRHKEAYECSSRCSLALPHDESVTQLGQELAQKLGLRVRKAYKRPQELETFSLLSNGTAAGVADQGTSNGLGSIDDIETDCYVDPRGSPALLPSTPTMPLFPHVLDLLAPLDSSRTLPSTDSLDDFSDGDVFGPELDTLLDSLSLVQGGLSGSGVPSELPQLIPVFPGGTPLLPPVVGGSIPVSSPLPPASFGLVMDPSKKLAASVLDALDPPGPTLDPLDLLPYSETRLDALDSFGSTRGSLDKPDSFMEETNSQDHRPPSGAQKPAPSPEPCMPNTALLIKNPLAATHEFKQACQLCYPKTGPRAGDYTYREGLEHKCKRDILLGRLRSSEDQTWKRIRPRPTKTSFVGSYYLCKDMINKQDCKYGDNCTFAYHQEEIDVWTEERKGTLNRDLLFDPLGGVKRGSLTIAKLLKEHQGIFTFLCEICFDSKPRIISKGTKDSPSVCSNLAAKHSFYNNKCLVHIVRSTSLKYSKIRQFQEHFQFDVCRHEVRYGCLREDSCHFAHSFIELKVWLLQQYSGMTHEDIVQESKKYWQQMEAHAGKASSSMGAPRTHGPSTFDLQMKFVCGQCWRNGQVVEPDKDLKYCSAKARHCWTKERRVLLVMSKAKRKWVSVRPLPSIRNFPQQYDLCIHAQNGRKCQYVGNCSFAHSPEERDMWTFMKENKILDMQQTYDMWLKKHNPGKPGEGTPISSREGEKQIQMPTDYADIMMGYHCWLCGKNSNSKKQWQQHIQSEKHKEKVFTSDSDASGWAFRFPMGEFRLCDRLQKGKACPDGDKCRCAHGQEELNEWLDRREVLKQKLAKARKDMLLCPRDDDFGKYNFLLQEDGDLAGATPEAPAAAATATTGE
Assay: co-IP

binding: no binding
Substance: eEF1A (human (endogenous in HEK293))
